Measured values published in PMC4442312 (eLife, 2015).
Results are given in words; binding and its absence hold for the method and conditions named. In cells and extracts the contact can be indirect. Some entries that bind do so weakly or less than the wild type. For some assays here: Sequences can lack the tags named with a protein.

Sequences of proteins named here, by UniProt entry; tags and fusion partners are left off.
UniProt Q96KQ7: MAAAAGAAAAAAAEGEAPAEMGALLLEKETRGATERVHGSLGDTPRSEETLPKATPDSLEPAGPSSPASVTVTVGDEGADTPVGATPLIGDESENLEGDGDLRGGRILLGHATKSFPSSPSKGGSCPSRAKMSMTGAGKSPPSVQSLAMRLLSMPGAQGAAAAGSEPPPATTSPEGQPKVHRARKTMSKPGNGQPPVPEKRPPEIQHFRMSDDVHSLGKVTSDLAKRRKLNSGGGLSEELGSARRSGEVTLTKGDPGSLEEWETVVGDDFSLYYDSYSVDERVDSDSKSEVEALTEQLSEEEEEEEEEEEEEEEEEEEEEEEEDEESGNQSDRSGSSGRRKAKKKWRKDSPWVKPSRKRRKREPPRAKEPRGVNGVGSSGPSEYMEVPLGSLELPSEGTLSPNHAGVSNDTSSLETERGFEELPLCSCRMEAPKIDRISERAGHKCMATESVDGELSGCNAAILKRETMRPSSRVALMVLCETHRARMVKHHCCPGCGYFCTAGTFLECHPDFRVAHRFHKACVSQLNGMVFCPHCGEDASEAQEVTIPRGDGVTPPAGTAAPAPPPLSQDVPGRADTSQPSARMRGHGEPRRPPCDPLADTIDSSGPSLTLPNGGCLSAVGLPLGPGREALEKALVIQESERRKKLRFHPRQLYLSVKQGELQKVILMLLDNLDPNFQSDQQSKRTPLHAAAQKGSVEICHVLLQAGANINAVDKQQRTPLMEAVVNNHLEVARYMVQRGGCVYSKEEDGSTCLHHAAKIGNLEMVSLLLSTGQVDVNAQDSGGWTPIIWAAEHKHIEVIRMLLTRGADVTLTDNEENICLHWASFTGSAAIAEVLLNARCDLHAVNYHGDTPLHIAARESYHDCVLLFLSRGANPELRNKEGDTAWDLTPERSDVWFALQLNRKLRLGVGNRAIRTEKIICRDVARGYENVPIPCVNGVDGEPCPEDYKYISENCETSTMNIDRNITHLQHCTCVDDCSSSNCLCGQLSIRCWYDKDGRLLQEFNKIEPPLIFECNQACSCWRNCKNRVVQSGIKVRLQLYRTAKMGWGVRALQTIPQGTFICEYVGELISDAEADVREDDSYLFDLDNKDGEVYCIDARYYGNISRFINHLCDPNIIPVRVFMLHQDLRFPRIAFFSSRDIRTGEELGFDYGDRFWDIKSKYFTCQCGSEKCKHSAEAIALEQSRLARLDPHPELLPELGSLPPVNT

Key:
HA-ORC1 = target: T1, HA-ORC1 (UniProt Q13415); assay: co-IP; sequential IP from triply transfected U2OS: HA IP, HA peptide elution, then T7 antibody IP; immunoblot
T1 sequence: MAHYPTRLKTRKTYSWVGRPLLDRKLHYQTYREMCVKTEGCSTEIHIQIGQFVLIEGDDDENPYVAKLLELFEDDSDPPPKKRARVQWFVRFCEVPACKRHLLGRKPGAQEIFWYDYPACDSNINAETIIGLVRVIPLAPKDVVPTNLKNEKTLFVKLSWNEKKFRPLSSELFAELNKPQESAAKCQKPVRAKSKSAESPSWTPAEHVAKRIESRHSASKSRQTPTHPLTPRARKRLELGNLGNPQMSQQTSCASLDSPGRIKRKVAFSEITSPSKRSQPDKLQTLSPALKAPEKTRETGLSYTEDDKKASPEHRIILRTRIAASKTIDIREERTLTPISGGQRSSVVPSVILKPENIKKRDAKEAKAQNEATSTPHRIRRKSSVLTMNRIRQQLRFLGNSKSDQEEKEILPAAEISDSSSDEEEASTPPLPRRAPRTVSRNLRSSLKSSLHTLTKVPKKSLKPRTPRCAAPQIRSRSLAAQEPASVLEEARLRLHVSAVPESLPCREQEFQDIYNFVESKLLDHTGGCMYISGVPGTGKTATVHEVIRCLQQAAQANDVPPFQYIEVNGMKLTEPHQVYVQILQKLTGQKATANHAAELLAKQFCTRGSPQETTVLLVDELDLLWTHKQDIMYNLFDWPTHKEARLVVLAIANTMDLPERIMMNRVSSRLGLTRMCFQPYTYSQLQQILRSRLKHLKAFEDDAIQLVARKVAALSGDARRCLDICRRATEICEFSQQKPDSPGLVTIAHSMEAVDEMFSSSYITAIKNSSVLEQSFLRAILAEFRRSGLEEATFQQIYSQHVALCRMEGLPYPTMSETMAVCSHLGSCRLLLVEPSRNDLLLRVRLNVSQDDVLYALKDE

[1] = target: T2, T7-ORCA (full-length) (human) (UniProt Q9UFC0); assay: as above
T2 sequence: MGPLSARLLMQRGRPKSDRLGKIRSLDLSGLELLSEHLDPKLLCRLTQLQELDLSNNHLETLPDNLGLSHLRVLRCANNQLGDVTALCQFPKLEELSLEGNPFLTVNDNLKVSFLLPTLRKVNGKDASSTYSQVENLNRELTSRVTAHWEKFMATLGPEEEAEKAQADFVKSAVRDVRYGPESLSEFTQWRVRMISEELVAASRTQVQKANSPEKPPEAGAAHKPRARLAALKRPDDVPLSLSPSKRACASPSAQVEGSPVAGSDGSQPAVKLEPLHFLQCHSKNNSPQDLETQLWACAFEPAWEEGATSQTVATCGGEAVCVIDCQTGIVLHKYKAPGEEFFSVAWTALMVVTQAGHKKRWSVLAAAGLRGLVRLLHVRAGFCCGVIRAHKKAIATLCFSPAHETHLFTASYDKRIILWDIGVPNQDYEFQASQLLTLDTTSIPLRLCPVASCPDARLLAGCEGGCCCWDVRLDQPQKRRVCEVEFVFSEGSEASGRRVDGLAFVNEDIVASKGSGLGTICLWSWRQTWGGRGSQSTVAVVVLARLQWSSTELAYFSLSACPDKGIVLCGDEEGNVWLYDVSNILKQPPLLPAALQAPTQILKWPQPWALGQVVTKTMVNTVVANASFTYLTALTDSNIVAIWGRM

Flag-G9a (from UniProt Q96KQ7 1-1210) (enzyme)
binding (HA-ORC1): binds | binding [1]: binds
